The values below come from PubChem BioAssay AID2271 (NMMLSC, 2010).

Structures are written as SMILES. Some of the results follow.

The assay in a line: yeast TOR pathway reporter LAP4-GFP change – cell-based, cherry picks, flow cytometry, mother/daughter gates, confirmation (AID 2271).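 Further: ratio of sample to DMSO plate mean so 100% equals DMSO level.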 As to conditions: S. cerevisiae LAP4-GFP strain, 3 h, at 10 µM, stronger effect = higher value, 100 means same as DMSO control. In a few lines:
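Test system: GFP-fusion yeast strain. Medium: synthetic complete (SC) yeast growth medium. Timing: 3 h treatment at 30 °C with rotation. Measured by: GFP by flow cytometry. Control set: positive rapamycin (400 ng/mL), negative DMSO.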
On the technique in general: In flow cytometry, cells or beads pass a laser one at a time.

The mark [1] stands for this setting: measured here: daughter cell gate response.
Setting [2] is: measured here: mother cell gate response.

In the case of `C[N+]1=C2C=CC=CC=C2SC12C([N+](=O)[O-])=CC([N+](=O)[O-])=C[C-]2[N+](=O)[O-]` (stereo unspecified), the GFP response relative to DMSO under setting [1] is 156% and the GFP response relative to DMSO under setting [2] was determined as 171%.
In the case of `O=P(Nc1nccs1)(c1ccccc1)c1nc2ccccc2s1` (stereo unspecified), the GFP response relative to DMSO came to 120% under setting [1] and 131% under setting [2].
Taken in the same sequence, the figures for `CCOP(=O)(Nc1cccc2ccccc12)OCC` were 99.1% and 96.2%.
